Experimental data published in patent US20080131423A1 (US Dept. of Health and Human Services, published 2008).
These are yes or no findings as the source states them, for the method shown. Some entries that bind do so weakly or less than the wild type.

Assays:
[1] = target: T1, human TREM-like transcript-1 (TLT-1) (human, UniProt Q86YW5 16-311); test: flow cytometry, purified scFv on TLT-1 transfected cells
T1 construct: whole, on cells; bands of 35 and 25 kDa; also called hTLT-1; TLT-1 on (HEK)293T transfected cells
T1 sequence (looked up): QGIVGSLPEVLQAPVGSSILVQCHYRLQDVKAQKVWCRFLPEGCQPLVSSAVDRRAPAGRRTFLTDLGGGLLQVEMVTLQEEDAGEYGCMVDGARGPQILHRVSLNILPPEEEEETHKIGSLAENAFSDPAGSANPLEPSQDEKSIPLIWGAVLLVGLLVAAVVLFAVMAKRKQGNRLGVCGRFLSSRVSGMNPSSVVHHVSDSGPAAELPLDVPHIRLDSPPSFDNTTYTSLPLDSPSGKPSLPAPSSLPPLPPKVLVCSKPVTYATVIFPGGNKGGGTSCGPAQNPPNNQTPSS
Procedure: For flow cytometric analysis with TLT-1-transfected cells, phage-containing supernatants were prepared from individual colonies as previously described (14). (HEK)293T-TLT-1 transfected cells (2×10⁵ cells) were washed with PBS/1% BSA and incubated with phages (2×10¹⁰ TU) or purified scFv (1 μg/ml). After 1 hr of incubation at 4° C., cells were washed twice with PBS/1% BSA. Phage binding was detected by incubation with mouse anti-M13 monoclonal antibody (Amersham Bioscience, Piscataway, N.J.), followed by incubation with phycoerithrin (PE)-conjugated anti-mouse antibody (Jackson Immunoresearch, West Grove, Pa.). To analyze scFv binding to human platelets, platelets were incubated with 1 μg of purified scFv for 1 hour at 4° C. and washed three times with PBS containing 0.5% sodium azide and 0.5% BSA. ScFv binding was detected using a FITC-conjugated anti-c-myc antibody (Sigma, St Louis, Mo.). TLT-1 expression was detected with a commercial anti-human TLT-1 pAb (R&D Systems, MN) as previously described (10).

[2] = target: T1, human TREM-like transcript-1 (TLT-1); test: flow cytometry, purified scFv on thrombin-activated human platelets (FIG. 4A)
[3] = target: T1, human TREM-like transcript-1 (TLT-1); test: flow cytometry, purified scFv on resting human platelets (low surface TLT-1)

Measured: binding

B1: scFv B8 (scFv)
scFv: MAEVQLLESGGGLVQPGGSLRLSCAASGFTFSSYAMSWVRQAPGKGLEWVSNITASGYATAYADSVKGRFTISRDNSKNTLYLQMNSLRAEDTAVYYCAKTTATFDYWGQGTLVTVSSGGGGSGGGGSGGGGSTDIQMTQSPSSLSASVGDRVTITCRASQSISSYLNWYQQKPGKAPKLLIYDASNLQSGVPSRFSGSGSGTDFTLTISSLQPEDFATYYCQQDTASPSTFGQGTKVEIKRAAAHHHHHHGAAEQKLISEEDLNGAA
notes: Human scFv from the Tomlinson I phage library; Soluble form purified on Protein L; also called GenBank DQ375452
binds: all assays above
